From PubChem BioAssay AID652054 (National Center for Advancing Translational Sciences (NCATS), 2013)
“And” between values parts separate entries of the source, which are not always exact repeats. Identical values can stand only once. The whole screen tested about 360,000 compounds, of which about 9,100 (2.5%) were called active. The inconclusive results got no clear call from the source; some entries with a clear call stand among them for comparison. No stated cut-off is given here; in the data, active means max response below about -50%; inconclusive means no clear call, values can overlap the other calls; inactive means above that.

Sequences of proteins named here, by UniProt entry; tags and fusion partners are left off.
UniProt P35462, whole entry, looked up: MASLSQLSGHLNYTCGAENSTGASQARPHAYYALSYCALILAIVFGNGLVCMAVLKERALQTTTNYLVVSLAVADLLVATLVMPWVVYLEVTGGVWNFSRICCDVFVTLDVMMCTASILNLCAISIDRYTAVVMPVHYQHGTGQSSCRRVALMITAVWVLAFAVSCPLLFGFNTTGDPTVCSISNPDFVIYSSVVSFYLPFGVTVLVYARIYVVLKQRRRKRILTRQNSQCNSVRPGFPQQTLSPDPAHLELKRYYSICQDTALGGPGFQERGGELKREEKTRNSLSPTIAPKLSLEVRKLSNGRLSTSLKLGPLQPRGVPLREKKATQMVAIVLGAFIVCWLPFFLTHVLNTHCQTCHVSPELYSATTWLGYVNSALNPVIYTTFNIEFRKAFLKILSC

These compounds were tested against D(3) dopamine receptor (Homo sapiens) (UniProt P35462) (assay: qHTS of D3 Dopamine Receptor Antagonist: qHTS). Settings: D3R cells, DiscoveRx beta-arrestin luminescence, antagonist mode; hits give low values.
How it was run: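 Cells expressing the human receptor were seeded at 1500 cells/well, incubated overnight at 37 degrees C in 5% CO2, then exposed to library compounds with dopamine controls for 90 minutes at 37 degrees C before luminescent detection.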
On the % scale 0 is the no-effect control and ±100 the full control effect.

| SMILES | max response, negative = inhibition |
| --- | --- |
| CC(=O)NCCCCCCNC(C)=O | inactive: -15.7% |
| CCCn1c(=O)n(C)c(=O)c2c(SCC(=O)NCC(c3ccccc3)N(C)C)nc(CC(C)C)nc21 (stereo not drawn) | inactive: -16.8% |
| CC(C(=O)Nc1ccc2c(c1)OCO2)N(C)CC(=O)Nc1ccc(Cl)cc1 (stereo not drawn) | inconclusive: -47.6% |
| Cc1nc(NC(=O)C2CCCC2)sc1Cc1ccc2c(c1)OCO2 | inconclusive: -42.8% |
| Cc1ccc(CCN2CC(C(=O)NCc3cccnc3)CC2=O)cc1 (stereo not drawn) | inconclusive: -47.7% |
| CCOC(=O)CNC(=O)C1(/C=C/c2ccccc2)CC(=O)N1c1ccc(OC)cc1 (stereo not drawn) | inconclusive: -31.5% |
| O=c1[nH]c2ccccc2c(O)c1-c1ccccc1[N+](=O)[O-] | inactive: -2.67% |
| Cn1c(/C=C/c2cccc([N+](=O)[O-])c2)nc2ccccc2c1=O | inactive: 3.86% |
| O=C(CCN1CCC(c2ccccc2)C1)c1ccccc1 (stereo not drawn) | inconclusive: -49.7% |
| CSc1ccc(CN2CCC(C)(Oc3ccccc3)C2)cc1 (stereo not drawn) | active: -96.7% |
| COc1ccc(/C=C2\Cc3ccccc3C2=O)cc1OC | inactive: 5.85% |
| CC(C)(C)OC(=O)n1cccc1/C=C1\c2ccccc2C(=O)N1c1ccccc1 | inconclusive: -33.9% |
| CC(=O)c1ccccc1OCCOCCOc1ccccc1C(C)=O | inactive: 6.09% |
| CCC1CCC(N2CCN(c3ccccc3F)CC2)CC1 (stereo not drawn) | active: -77.5% |
| O=C(COC(=O)c1cnccn1)c1ccc2c(c1)CCCC2 | inconclusive: -36.1% |
| CC1(C)Cc2ccccc2-c2nnc(-c3ccco3)n21 | active: -51.9% |
| CC(C(=O)NCCS(=O)(=O)c1ccc(Cl)cc1)S(=O)(=O)c1ccc(Cl)cc1 (stereo not drawn) | inconclusive: -34.3% |
| C=CCn1c(SCCCC)nc(O)cc1=O | inactive: -8.18% and inactive: -3.39% |
| O=C(Nc1scc(-c2cccs2)c1C(=O)O)c1cccs1 | inconclusive: -44.6% |
| CCSc1nnc(NC(=O)COc2ccccc2[N+](=O)[O-])s1 | inactive: 0% |
| O=C1CC(N(CCc2ccccc2)C(=S)Nc2ccccc2)C(=O)N1c1ccccc1 (stereo not drawn) | inconclusive: -36.2% |
| O=C(Nc1ccccc1)Nc1nnc([C@@H]2C[C@H](O)[C@@H](CO)O2)s1 | active: -67.8% |

| SMILES | max response, negative = inhibition |
| --- | --- |
| CCc1ccc(-n2nnnc2SCC(=O)NNC(=O)c2ccco2)cc1 | inconclusive: -39.3% |
| C#CCOCCOCCOCCNc1nc(N2CCN(C(=O)CCCCCCCCCCNC(=O)Cn3cc(C[C@@H](C)O)nn3)CC2)nc(N2CCN(C(=O)CCCCCCCCCCNC(=O)[C@@H](CCSC)n3cc(CCO)nn3)CC2)n1 | inactive: 3.17% |
| c1ccc(Cn2c(SCCN3CCOCC3)nnc2-c2cccnc2)cc1 | inconclusive: -42.2% |
| C/C(=N\NC(=O)CSCc1ccc([N+](=O)[O-])cc1)c1ccccc1 | inactive: 6.62% |
| COc1cc(C(=O)N(Cc2cc3cc(C)ccc3[nH]c2=O)CC2CCCO2)cc(OC)c1OC (stereo not drawn) | inactive: 15.5% |
| CC(C)CCNC(=O)[C@@H](NC(=O)c1c(F)cccc1F)C(C)C | inconclusive: -34.1% |
| COc1cc2[nH]c(=O)n(CCC(=O)NCCCN3CCN(c4ccccc4F)CC3)c(=O)c2cc1OC | inconclusive: -37.6% |
| COc1cc(/C=N/N=C(\N)c2nonc2N)cc(OC)c1OC | inconclusive: -33.1% |
| O=C(COc1ccc(S(=O)(=O)N2CCCCC2)cc1)NCc1cccnc1 | inactive: 13.4% |
| COc1ccc(C(CNC(=O)c2oc3cc(C)c(Cl)cc3c2C)N2CCCCC2)cc1 (stereo not drawn) | inactive: 13.3% |
| CCOC(=O)c1cc2sccc2n1CC(=O)Nc1ccc(OC)c(OC)c1 | inconclusive: -30.1% |
| OCC1(Cc2ccccc2)CCCN(Cc2ccc3c(c2)OCCO3)C1 (stereo not drawn) | inconclusive: -30.4% |
| O=C(CSc1nnc(-c2cccs2)o1)N1CCOCC1 | inconclusive: -31.2% |
| CCOC(=O)c1cc2c(=O)n3ccccc3nc2n(CCCOC)c1=NC(=O)C(C)(C)C | inactive: 21.7% |
| O=C(O)c1oc2ccccc2c1CSc1ccccn1 | inconclusive: -38.8% |
| O=C(NC1CCN(Cc2ccc(Cl)c(Cl)c2)CC1)c1ccccc1 | active: -99.5% |
| S=c1[nH]nc(-c2ccc(Br)o2)n1Cc1ccccc1 | active: -81.7% |
| O=C(NCC1CCCO1)c1c(O)c2cccc3c2n(c1=O)CC3 (stereo not drawn) | inconclusive: -37.2% |
| CCOC(=O)C1CCN(c2ccccc2CN2CCN(c3ccccc3OCC)CC2)CC1 | active: -75% |
| COc1ccc(CCNC(=O)c2cnn3ccccc23)c(OC)c1OC | inconclusive: -40.3% |
| COc1ccc(Br)cc1CN1CCN(C(=O)c2ccc(F)cc2)CC1 | inconclusive: -32.3% |
| O=C(NC(=S)Nc1ccc(CN2CCOCC2)cc1)c1ccccc1[N+](=O)[O-] | active: -107% |

| SMILES | max response, negative = inhibition |
| --- | --- |
| Cc1cc(Br)ccc1NC(=O)CN(C)C(=O)C1CCN(C(=O)c2ccc(Cl)cc2)CC1 | inactive: 13.6% |
| C#CC[N+]1(CC#Cc2cccc3ccccc23)CCOCC1 | inactive: 10.5% |
| O=C1C(=Cc2ccccc2Cl)CCc2ccccc21 | inconclusive: -39.5% |
| COc1cc2[nH]c(C(=O)NCc3ccccc3)cc2c(OC)c1OC | active: -105% |
| COc1ccc(CN(C#N)c2nc(SC)nc(N(C)C)n2)cc1 | inactive: 114% |
| Cc1c(NC(=O)c2ncn[nH]2)cccc1-c1nc2ccccc2s1 | inconclusive: -47.7% |
| Cc1cnc(C=O)c2cccc([N+](=O)[O-])c12 | active: -77.2% |
| COc1cc(/C=N/Nc2nn3cnnc3c3ccccc23)ccc1O | inactive: -29.4% |
| CN(C)CC#CCOC(c1ccccc1)c1ccccc1 | inconclusive: -39.4% |
| COc1ccc(N(C(=O)c2ccccc2C)S(=O)(=O)c2cccs2)cc1 | inconclusive: -37.2% |
| O=S(=O)(N1CCCCC1)N1CCN(CC(O)COc2ccc3cc(Br)ccc3c2)CC1 (stereo not drawn) | inactive: -0.847% |
| COc1cccc(/C=C2\SC(=S)N(CCC(=O)NNC(=O)c3ccccc3OC)C2=O)c1 | inactive: 1.53% |
| Cc1ccc(S(=O)(=O)N2CCCCC2)cc1C(=O)N(C)CC(=O)Nc1ccc(Cl)c(C(F)(F)F)c1 | inconclusive: -36.4% |
| Cc1ccc(-n2ncc3c(N4CCCC4)ncnc32)c(C)c1 | inconclusive: -33.1% |
| Cc1ccc(S(=O)(=O)NC(c2ccccc2)C(C)C(=O)n2nc(C)cc2C)cc1 (stereo not drawn) | inconclusive: -32.7% |
| Cc1ccc(CN2CC(C(=O)N3CC=C(c4ccccc4)CC3)CC2=O)cc1 (stereo not drawn) | inactive: 16% |
| Cn1nc(C(F)(F)F)c(-c2ccc(F)cc2)c1NC(=O)c1cccnc1 | inconclusive: -37.9% |
| O=C1C2C3C=CC(C3)C2C(=O)N1CNc1ccccc1 (stereo not drawn) | inconclusive: -31.3% |
| C[C@]12CC[C@H]3[C@@H](CCC4=CC(=O)CC[C@@]43C)[C@@H]1CC[C@@H]2C(=O)CO | active: -88.5% |
| Cc1cc(C)c(OCCCCNCc2ccccc2)c(Cl)c1 | active: -76.2% |
| CC(C)(C)CN1CCC(Oc2cccc(C(=O)N3CCC[C@H]3CO)c2)CC1 | inactive: -7.85% |
| Cn1nc(-c2ccc(Cl)cc2)c2cc(C(=O)NCCCN3CCOCC3)sc21 | inconclusive: -37.9% |

| SMILES | max response, negative = inhibition |
| --- | --- |
| COc1ccc(-n2c3c(cc(C(=O)Nc4ccc(C)cc4)c2=O)C(=O)CCC3)cc1 | inconclusive: -33.4% |
| O=S(=O)(c1ccc(Cl)s1)N1CCN(Cc2ccccc2)CC1 | active: -58.5% |
| CC(C)COc1ccc(C(=O)OC2CC(C)(C)OCC2CN(C)C)cc1 (stereo not drawn) | inconclusive: -40.7% |
| CCN1CCc2nc(NC(=O)C(c3ccccc3)c3ccccc3)sc2C1 | inconclusive: -30.1% |
| COc1cc(Cl)c(C)cc1NC(=S)NN | inactive: -28.9% |
| CCOC(=O)C(C(=O)OCC)C(c1ccccc1)N1CCN(c2ccccc2)CC1 (stereo not drawn) | inconclusive: -44.8% |
| COC(=O)Cc1ccc(N(Cc2ccccc2F)S(=O)(=O)c2ccc(Cl)cc2)cc1 | active: -55.7% |
| O=C(Cc1ccccc1)c1nc2ccccc2s1 | inconclusive: -35.1% |
| Cc1c(C)n(C)c2ccc(C(=O)NCCCN(C)C3CCCCC3)cc12 | inconclusive: -35.3% |
| COc1ccc(C2C(=O)c3ccccc3C2=O)c(OC)c1 | inactive: 7.35% |
| O=C1CCC[C@@H]2C[C@@]3(C[C@@H]4CCN1[C@H]24)Nc1cc(Cl)c(Cl)cc1NC3=NCc1ccccc1 | inconclusive: -40.4% |
| Cc1ccc(NS(=O)(=O)c2c(C)[nH]c(C)c2C(=O)N2CCCC2)cc1Cl | active: -85.8% |
| O=C(Nc1nc2c(s1)C(=O)CCC2)c1ccccc1 | inconclusive: -32.8% |
| O=C(COc1ccc(Cl)cc1)NCCCn1ccnc1 | inconclusive: -44.4% |
| COc1ccc(-c2cc(C(=O)N3CCCC3)c3ccccc3n2)cc1OC | inactive: 1.59% |
| Cc1cccc(-c2noc(Cc3ccc(Cl)cc3)n2)c1 | inconclusive: -35.5% |
| CCCCC1Cc2[nH][nH]c(=O)c2C(c2ccc(Cl)cc2)O1 (stereo not drawn) | inconclusive: -34.4% |
| CC(C)n1c(SCC(=O)Nc2nc3c(s2)CCCC3)nc2c1c(=O)n(C)c(=O)n2C | inconclusive: -31.4% |
| CCOC(=O)c1sc(NC(=O)Cn2nnc3sc4c(c3c2=O)CCC(C(C)(C)C)C4)nc1C (stereo not drawn) | inconclusive: -34.8% |
| Cc1ccc(CN2CCC(c3cc(-c4cccs4)n[nH]3)CC2)cc1 | active: -77.6% |
| COc1ccc(CN2C(=O)C(CC(C)C)Nc3ncnc(N4CCN(c5ccccc5)CC4)c32)cc1 (stereo not drawn) | inactive: -0.14% and inactive: -9.95% |
| O=C(Cn1nc(-c2ccccc2Cl)ccc1=O)Nc1ccccc1-c1ccccc1 | inactive: -2.18% |
